Source: US7329489B2, “Methods for drug discovery, disease treatment, and diagnosis using metabolomics” (Matabolon, Inc., priority 2000, dated 2008)

Test system: plasma metabolome of ALS patients

In the case of `Nc1nc2ccc(OC(F)(F)F)cc2s1` [Riluzole], the “effect of the drug on endogenous cellular metabolites” value (plasma of ALS patients on Riluzole, after complete unblinding) was “A series of endogenous cellular metabolites induced by the drug Riluzole were identified” and the “number of compounds increased in patients on Riluzole (HPLC analysis of the metabolome)” value (versus controls, FIG. 6B) was 17 compounds.
